Results are given in words; binding and its absence hold for the method and conditions named. Binding seen in cells or lysates may run through a third protein. Some entries that bind do so weakly or less than the wild type.

Chains of the proteins cited; added tags and fusions are not shown.
UniProt Q99996: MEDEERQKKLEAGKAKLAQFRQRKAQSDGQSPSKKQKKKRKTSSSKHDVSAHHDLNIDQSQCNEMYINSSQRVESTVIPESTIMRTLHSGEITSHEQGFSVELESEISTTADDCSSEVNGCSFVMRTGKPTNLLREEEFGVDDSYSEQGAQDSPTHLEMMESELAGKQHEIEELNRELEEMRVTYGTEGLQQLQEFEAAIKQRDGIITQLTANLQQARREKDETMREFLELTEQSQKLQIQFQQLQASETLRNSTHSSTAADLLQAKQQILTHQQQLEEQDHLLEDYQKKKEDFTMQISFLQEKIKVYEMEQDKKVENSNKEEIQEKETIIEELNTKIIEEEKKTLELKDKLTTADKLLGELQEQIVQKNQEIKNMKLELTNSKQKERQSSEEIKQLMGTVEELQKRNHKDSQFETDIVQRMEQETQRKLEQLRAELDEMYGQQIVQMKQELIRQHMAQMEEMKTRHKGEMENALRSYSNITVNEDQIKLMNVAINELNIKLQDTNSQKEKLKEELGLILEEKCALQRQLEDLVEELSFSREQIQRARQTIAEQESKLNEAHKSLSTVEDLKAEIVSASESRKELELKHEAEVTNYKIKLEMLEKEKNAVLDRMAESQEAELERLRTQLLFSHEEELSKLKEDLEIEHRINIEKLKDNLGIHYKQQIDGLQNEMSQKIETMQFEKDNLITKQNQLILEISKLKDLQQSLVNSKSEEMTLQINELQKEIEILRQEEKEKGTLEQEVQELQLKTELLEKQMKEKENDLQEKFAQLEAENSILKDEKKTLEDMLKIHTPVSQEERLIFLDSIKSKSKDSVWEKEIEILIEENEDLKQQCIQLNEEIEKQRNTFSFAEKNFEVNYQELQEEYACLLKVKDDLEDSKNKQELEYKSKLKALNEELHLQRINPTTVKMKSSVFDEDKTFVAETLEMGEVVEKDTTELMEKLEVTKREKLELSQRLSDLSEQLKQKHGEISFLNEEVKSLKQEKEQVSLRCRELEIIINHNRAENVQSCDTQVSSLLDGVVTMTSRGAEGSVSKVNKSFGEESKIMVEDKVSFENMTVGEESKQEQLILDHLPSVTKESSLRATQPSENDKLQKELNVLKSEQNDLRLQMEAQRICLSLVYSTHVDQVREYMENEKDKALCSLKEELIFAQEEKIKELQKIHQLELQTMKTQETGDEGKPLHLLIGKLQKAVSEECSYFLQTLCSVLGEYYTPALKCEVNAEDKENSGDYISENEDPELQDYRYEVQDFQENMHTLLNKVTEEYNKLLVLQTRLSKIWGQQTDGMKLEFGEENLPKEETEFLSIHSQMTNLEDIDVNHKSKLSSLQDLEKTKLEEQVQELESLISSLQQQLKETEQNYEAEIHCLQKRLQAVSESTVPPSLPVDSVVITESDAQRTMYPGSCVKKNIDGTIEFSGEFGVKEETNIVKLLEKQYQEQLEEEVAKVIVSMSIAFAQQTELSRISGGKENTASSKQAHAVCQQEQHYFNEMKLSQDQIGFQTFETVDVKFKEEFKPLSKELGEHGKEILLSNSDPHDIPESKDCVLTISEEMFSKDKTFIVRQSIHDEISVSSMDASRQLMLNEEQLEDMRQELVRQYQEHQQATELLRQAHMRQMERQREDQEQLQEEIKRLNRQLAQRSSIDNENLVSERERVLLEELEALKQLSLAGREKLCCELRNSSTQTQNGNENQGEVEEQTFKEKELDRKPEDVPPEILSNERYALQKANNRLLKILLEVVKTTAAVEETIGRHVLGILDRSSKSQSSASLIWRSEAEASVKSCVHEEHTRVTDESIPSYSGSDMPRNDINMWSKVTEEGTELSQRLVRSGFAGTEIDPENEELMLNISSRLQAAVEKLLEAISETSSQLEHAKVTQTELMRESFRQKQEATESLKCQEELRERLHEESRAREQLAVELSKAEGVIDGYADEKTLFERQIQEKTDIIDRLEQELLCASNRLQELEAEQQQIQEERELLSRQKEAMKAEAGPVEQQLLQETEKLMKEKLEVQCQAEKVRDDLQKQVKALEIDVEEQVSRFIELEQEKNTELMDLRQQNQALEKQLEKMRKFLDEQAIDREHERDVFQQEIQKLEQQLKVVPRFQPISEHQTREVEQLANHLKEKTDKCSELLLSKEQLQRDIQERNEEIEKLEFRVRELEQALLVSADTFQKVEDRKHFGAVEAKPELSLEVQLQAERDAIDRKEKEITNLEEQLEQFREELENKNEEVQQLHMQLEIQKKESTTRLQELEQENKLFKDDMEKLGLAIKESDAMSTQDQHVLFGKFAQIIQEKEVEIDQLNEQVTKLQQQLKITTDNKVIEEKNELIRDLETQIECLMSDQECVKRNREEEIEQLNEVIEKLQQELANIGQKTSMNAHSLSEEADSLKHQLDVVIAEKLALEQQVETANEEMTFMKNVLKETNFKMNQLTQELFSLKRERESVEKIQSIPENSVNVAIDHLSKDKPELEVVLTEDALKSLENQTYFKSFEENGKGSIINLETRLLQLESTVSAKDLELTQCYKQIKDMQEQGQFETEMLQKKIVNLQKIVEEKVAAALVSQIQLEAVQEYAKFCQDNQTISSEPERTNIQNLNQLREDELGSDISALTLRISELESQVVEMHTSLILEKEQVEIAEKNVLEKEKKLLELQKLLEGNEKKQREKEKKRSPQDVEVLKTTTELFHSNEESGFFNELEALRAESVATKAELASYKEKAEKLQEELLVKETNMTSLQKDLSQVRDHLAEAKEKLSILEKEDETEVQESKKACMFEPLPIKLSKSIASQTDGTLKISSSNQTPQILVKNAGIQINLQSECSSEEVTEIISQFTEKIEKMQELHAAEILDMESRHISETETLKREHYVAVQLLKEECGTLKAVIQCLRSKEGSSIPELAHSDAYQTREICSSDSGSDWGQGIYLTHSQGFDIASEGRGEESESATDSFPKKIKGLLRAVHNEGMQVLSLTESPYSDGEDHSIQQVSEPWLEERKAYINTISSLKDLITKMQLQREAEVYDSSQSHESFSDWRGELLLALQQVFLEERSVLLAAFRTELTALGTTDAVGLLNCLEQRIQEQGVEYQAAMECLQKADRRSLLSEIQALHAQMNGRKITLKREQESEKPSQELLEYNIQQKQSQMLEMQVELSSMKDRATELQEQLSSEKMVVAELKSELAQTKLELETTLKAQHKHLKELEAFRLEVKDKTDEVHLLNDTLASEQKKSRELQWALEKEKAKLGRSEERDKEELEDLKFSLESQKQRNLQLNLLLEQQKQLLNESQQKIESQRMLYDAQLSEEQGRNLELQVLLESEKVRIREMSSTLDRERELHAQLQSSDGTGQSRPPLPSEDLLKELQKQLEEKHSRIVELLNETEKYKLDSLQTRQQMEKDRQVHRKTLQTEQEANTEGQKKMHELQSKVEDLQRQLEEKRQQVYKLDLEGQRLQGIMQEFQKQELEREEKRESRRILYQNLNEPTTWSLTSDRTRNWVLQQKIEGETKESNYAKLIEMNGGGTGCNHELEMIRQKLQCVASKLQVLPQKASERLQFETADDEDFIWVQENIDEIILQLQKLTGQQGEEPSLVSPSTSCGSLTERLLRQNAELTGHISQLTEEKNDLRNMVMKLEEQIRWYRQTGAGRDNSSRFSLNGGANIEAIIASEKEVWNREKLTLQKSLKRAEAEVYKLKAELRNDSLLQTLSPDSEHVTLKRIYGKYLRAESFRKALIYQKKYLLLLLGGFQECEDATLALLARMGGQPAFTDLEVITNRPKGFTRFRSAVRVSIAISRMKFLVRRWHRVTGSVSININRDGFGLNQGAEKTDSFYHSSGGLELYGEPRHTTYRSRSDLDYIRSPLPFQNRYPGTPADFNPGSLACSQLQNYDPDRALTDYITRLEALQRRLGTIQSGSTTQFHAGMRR
UniProt Q5VU43: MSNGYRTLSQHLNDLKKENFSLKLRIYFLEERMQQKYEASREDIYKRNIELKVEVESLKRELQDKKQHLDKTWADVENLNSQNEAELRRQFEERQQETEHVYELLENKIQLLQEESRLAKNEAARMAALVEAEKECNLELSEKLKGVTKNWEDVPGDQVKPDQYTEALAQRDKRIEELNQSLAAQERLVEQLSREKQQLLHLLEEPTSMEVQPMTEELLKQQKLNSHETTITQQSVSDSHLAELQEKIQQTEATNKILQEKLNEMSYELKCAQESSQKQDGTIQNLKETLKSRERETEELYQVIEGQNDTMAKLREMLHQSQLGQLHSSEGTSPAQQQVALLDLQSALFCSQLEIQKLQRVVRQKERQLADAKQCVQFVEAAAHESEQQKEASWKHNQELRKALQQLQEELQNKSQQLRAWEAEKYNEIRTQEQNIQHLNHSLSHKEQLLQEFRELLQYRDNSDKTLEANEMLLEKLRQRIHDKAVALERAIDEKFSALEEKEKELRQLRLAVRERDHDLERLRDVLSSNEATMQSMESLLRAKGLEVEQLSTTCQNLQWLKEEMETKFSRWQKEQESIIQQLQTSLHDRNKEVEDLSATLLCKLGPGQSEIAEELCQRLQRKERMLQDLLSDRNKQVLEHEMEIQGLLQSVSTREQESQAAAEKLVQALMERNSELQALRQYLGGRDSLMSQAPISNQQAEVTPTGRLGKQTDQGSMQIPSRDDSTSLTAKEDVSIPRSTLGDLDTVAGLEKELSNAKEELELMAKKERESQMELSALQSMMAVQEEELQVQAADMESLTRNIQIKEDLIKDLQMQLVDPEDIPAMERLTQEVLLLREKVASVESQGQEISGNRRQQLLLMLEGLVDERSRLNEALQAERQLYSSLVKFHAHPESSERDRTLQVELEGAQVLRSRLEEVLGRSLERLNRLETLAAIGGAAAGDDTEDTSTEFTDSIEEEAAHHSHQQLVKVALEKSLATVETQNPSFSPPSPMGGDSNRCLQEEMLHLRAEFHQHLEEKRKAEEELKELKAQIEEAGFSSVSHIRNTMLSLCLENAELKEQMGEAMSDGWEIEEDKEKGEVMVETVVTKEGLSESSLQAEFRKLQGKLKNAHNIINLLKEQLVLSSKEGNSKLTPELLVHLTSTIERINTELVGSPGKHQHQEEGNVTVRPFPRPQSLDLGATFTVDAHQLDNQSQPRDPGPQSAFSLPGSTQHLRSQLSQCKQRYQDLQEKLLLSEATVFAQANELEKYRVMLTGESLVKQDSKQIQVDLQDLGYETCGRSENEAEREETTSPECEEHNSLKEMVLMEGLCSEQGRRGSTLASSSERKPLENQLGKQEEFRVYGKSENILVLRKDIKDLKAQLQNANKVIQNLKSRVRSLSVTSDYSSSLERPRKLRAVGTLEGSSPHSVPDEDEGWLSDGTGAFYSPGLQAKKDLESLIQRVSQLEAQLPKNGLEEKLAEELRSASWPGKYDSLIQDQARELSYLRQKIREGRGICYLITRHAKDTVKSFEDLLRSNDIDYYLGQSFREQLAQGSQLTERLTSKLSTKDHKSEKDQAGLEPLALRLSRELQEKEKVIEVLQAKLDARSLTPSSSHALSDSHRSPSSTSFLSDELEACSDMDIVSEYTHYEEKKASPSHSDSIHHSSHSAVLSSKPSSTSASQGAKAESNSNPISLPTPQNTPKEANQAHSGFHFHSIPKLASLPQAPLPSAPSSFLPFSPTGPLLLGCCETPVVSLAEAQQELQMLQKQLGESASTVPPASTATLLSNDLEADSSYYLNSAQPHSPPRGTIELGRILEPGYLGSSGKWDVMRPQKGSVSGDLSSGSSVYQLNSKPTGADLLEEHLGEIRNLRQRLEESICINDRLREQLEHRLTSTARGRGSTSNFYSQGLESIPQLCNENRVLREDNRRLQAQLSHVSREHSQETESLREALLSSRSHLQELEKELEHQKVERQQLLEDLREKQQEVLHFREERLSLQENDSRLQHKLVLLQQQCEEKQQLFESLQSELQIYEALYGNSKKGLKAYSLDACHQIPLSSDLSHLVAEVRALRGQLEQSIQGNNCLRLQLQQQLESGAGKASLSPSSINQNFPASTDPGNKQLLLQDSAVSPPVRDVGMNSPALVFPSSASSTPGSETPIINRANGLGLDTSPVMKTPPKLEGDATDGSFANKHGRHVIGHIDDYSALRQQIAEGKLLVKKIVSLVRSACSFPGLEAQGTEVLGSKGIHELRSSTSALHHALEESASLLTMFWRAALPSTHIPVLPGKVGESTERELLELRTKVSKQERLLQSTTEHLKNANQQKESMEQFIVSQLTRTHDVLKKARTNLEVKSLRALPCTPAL

The text below walks through data of paper PMC10290635.

Assay [1] has as its target AKAP9 (human (endogenous in DLD1 and SW480)) (UniProt Q99996). Put plainly: co-IP; endogenous; DLD1 and SW480 lysates (20 mM Tris-HCl pH 7.5, 150 mM NaCl, 1.0% Triton X-100) immunoprecipitated with an anti-AKAP9 antibody overnight at 4 °C, Protein G-Sepharose, IgG as negative control, Western blot. (In general: A western blot detects proteins with antibodies after separation by electrophoresis.)

The target of assay [2] is Myc-tagged full-length PDE4DIP (phosphodiesterase 4D interacting protein) (human) (UniProt Q5VU43). Put plainly: co-IP; lysates of DLD1 and SW480 cells transfected with the Myc-tagged PDE4DIP plasmid, immunoprecipitated with an anti-Myc antibody, Western blot of the endogenous partner.

For “PKCε (from UniProt Q02156 1-737) (enzyme)”, the binding entry in assay [1] and in assay [2] was “binds” throughout.

For “PDE4DIP (endogenous) (from UniProt Q5VU43 1-2346)”, in assay [1], the binding result is “binds”.
